In publication PMC6312541:
Results are given in words; binding and its absence hold for the method and conditions named. In cells and extracts the contact can be indirect. Some entries that bind do so weakly or less than the wild type. For part of these data: Where a sequence is shown, tags or fusion partners need not be part of it.

Protein sequences, listed by entry. Tags and fused reporters are not part of them. Lines headed by an entry give the natural chain unless they say otherwise; changes in a name come on top.
UniProt Q13283: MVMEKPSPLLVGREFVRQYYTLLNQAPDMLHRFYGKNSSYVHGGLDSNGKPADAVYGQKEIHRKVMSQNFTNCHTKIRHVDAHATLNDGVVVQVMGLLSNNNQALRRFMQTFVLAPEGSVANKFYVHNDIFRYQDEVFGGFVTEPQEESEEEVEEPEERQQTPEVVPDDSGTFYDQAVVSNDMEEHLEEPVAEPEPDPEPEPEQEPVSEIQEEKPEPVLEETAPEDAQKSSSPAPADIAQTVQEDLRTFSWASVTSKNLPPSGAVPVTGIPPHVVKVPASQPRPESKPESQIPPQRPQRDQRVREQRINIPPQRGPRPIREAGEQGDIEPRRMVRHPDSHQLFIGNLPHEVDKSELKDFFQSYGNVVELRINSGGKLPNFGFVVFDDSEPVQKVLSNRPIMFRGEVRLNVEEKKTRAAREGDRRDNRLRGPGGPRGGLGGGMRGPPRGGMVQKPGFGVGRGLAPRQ
UniProt Q04637: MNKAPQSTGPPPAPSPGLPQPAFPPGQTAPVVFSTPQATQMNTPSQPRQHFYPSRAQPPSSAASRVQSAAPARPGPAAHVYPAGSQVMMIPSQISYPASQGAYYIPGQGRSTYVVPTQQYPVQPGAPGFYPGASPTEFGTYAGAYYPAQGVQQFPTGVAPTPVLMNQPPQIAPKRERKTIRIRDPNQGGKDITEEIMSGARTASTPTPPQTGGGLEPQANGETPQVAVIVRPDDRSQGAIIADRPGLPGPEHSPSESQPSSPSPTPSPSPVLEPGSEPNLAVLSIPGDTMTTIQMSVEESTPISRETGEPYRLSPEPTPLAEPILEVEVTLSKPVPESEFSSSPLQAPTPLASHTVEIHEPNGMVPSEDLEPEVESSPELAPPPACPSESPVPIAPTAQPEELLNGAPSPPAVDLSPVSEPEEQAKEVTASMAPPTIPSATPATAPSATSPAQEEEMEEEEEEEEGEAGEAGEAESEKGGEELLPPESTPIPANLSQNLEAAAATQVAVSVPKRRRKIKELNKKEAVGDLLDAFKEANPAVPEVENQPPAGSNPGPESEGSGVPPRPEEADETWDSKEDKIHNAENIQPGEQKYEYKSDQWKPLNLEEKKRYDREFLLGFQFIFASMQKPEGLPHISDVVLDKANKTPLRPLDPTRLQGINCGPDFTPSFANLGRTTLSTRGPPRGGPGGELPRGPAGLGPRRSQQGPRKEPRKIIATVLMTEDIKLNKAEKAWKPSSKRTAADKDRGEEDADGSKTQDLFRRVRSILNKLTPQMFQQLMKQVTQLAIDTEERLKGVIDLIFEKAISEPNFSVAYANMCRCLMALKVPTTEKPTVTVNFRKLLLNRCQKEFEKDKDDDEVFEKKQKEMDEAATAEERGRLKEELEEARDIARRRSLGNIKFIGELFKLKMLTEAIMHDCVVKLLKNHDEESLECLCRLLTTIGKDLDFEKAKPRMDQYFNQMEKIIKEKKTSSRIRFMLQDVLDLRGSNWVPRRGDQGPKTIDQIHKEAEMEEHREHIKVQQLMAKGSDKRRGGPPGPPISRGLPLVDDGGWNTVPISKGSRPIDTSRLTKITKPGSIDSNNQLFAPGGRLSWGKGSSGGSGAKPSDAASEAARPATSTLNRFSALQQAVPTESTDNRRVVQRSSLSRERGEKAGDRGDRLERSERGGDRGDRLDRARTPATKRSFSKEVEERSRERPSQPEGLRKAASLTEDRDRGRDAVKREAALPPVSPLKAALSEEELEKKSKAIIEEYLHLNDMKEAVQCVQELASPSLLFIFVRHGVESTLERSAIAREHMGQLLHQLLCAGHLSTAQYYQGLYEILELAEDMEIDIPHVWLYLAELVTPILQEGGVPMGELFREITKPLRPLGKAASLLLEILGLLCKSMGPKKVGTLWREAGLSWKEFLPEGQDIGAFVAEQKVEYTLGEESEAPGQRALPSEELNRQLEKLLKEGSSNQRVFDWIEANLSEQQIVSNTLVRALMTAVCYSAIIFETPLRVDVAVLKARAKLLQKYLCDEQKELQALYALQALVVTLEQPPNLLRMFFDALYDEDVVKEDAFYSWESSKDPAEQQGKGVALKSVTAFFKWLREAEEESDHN

Assays:
Test in all cases: co-IP; IP with anti-FLAG M2 affinity gel (4 °C, 4 h) from lysates of HeLa cells transfected with Flag-tagged constructs; WB for endogenous eIF4GI; lysis buffer with 1% Triton X-100, 0.1% SDS, 1 mM EDTA, pH 7.4
[1] = target: Flag-tagged G3BP1 (human (from the RefSeq entry NM_005754.2)) (UniProt Q13283)
[2] = target: G3BP1 (partner tested together with G3BP1-ΔRBD, Fig. 5f and 5g) (UniProt Q13283)
[3] = target: T1, Flag-tagged TIA-1 (human (cDNA from HeLa cells)) (UniProt P31483)
T1 sequence: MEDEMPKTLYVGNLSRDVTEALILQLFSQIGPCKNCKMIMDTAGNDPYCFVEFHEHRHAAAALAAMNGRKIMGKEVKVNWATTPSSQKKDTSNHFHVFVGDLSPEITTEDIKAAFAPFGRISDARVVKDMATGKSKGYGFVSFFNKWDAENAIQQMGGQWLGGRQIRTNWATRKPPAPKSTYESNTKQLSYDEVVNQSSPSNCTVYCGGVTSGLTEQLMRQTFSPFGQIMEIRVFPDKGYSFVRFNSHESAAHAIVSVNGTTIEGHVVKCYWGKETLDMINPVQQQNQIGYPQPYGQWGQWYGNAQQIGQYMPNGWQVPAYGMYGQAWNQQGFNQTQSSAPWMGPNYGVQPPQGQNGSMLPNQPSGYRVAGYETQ

binding [1]: binds | binding [2]: binds | binding [3]: no binding
Substance: eIF4GI, endogenous (from UniProt Q04637 1-1599)
